Drawing on publication PMC11946196, this text covers binding for 2 substances.

By UniProt entry, the sequences of proteins in these tests, tags left out.
UniProt P29590: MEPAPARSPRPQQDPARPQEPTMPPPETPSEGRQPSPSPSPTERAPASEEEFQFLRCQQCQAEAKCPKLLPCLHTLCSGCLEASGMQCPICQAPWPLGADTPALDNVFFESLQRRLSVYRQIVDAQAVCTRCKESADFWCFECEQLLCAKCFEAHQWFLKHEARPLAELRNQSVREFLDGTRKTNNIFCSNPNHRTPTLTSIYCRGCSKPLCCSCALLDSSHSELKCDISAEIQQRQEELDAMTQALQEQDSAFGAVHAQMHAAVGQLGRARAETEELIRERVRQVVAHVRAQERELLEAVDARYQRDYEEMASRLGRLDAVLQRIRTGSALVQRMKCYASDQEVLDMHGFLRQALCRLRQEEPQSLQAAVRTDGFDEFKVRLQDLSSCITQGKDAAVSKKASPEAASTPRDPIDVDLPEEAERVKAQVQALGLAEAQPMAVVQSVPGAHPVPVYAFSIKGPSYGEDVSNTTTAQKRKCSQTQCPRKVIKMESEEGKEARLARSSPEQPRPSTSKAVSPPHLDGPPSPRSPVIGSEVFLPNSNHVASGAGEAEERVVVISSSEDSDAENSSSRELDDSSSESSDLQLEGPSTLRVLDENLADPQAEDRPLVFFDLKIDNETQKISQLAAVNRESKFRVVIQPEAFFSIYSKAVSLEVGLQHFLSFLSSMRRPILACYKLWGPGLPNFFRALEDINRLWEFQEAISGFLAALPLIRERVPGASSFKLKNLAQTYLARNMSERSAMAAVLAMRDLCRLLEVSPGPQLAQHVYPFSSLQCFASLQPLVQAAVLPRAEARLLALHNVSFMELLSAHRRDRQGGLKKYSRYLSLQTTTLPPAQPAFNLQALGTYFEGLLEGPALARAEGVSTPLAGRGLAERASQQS

Experiment [1] deals with α3 isoform of the Na+/K+-ATPase pump (human (endogenous in HFFs)) (UniProt P13637). Description: co-IP.
For experiment [2], the target named is promyelocytic leukemia protein (human (endogenous in HFFs)) (UniProt P29590). Description: co-IP.

These are yes or no findings as the source states them, for the method shown. In cells and extracts the contact can be indirect. Some results given as binding are weak or reduced against the parent protein; the word gives no strength.

As to “promyelocytic leukemia protein (from UniProt P29590 1-882)”, the binding entry in experiment [1] is “binds”. As for “α3 isoform of the Na+/K+-ATPase pump (from UniProt P13637 1-1013)”, the binding result in experiment [2] is listed as “binds”.
